From patent publication US20200010857A1 (priority 2016, published 2020)

Tested on: Rhodococcus aetherivorans BCP1
Assay: TeO3^2− consumption assay, growing BCP1 cells
Assay type: cell-based

Which results are given for O=[Te]([O-])[O-].[K+].[K+] [K2TeO3, potassium tellurite]?
reduction of TeO3^2− faster in conditioned than unconditioned cells (100 μg/mL K2TeO3): 12 h; amount of residual oxyanions present in the medium (conditioned cells, 500 μg/mL K2TeO3): 152 µg; reduction of the initial concentration of TeO3^2− (conditioned cells, 500 μg/mL K2TeO3, 5 culturing days): 348 µg; reduction of TeO3^2− oxyanions during lag phase (conditioned cells, 500 μg/mL K2TeO3, initial 36 h): 56 µg; time to complete reduction of TeO3^2− (unconditioned BCP1 cells, 100 μg/mL K2TeO3): 48 h; decrease of initial amount of oxyanions during lag phase (unconditioned cells, 500 μg/mL K2TeO3, 24 h): 153 µg; reduction of the initial amount of TeO3^2− (unconditioned cells, 500 μg/mL K2TeO3, 120 h): about 45%; reduction of the initial amount of TeO3^2− (unconditioned cells, 500 μg/mL K2TeO3, 120 h (5 culturing days)): 218 µg
